Experimental data reported in patent CN112538116A.
Where a chain is given by its changes, count along the chain named. These are yes or no findings as the source states them, for the method shown. Some entries that bind do so weakly or less than the wild type.

Protein sequences, listed by entry. Tags and fused reporters are not part of them. Lines headed by an entry give the natural chain unless they say otherwise; changes in a name come on top. Residues count along the entry.
UniProt Q07011: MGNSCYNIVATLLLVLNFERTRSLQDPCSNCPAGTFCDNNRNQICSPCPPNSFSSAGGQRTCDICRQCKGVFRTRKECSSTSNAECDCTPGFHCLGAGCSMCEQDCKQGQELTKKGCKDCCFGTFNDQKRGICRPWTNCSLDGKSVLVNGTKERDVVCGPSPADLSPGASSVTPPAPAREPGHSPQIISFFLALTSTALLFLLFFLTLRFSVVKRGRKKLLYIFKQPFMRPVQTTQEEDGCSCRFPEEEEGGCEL
人4-1BB on Jurkat-4-1BB细胞: residues 24-255 of Q07011
带组氨酸标签的4-1BB抗原: residues 24-186 of Q07011

Assays:
带组氨酸标签的4-1BB抗原 = 带组氨酸标签的4-1BB抗原 (UniProt Q07011); assay: Biacore, antibody captured by anti-human IgG on CM5, His-tagged 4-1BB as analyte
4-1BB-ECD-hFc (human) = 4-1BB-ECD-hFc (human) (UniProt Q07011); assay: ELISA, method as in Example 1
[1] = biological target: 人4-1BB on Jurkat-4-1BB细胞 (human) (UniProt Q07011); assay: FACS on Jurkat-4-1BB cells

B1: 抗人4-1BB人源化抗体2F10 (antibody, V domains shown)
VH: EVQLVQSGAEVKKPGATVKISCKVSGFNIEDTYLNWVQQAPGKGLEWIGKIYPANGDTKYDPKFQGRATITADTSTDTAYMELSSLRSEDTAVYYCTRGYGSNFFDYWGQGTLVTVSS
VL: EIVLTQSPATLSLSPGERATLSCRASESVDSYDNSFMHWYQQKPGQAPRLLIYRASNLESGIPARFSGSGSRTDFTLTISSLEPEDFAVYYCQQSNEDPYTFGQGTKLEIK
**Q.** How did the binding (带组氨酸标签的4-1BB抗原) turn out when B1 was run?
**A.** Its binding is “binds”.

**Q.** What about the binding (4-1BB-ECD-hFc (human)) of the same binder?
**A.** Its binding is “binds”.

**Q.** What about the binding [1] of the same binder?
**A.** The binding was “binds”.

B2: 抗人4-1BB人源化抗体8H8 (antibody, V domains shown)
VH: QIQLVQSGSELKKPGASVKVSCKASGYTFSNYGMNWVRQAPGQGLEWMGWINTHTGEPTYADEFKGRFVFSLDTSVSTAYLQISSLKAEDTAVYYCARVLTMVMDYWGQGTLVTVSS
VL: DIVLTQSPDSLAVSLGERATINCRASEIIDGSGNSFVHWYQQKPGQPPKLLIYRTSTLESGVPDRFSGSGSRTDFTLTISSLQAEDVAVYYCLQTVEDPWTFGGGTKVEIK
**Q.** How did the binding (带组氨酸标签的4-1BB抗原) turn out when B2 was run?
**A.** The binding was “binds”.

B3: 抗人4-1BB人源化抗体10B2 (antibody, V domains shown)
VH: QVQLVESGGGVVQPGRSLRLSCAASGFTFSTFGLHWVRQAPGKGLEWVAYISSDSNTIYYADTMKGRFTISRDNSKNTLYLQMNSLRAEDTAVYYCTRGDPAYYGYGGRFVYALDFWGQGTLVTVSS
VL: DVVVTQTPLSLSVTPGQPASISCRSSQSLTNSYGHTYLSWYLQKPGQSPQLLIYGISIRFSGVPDRFSGSGSGTDFTLKISRVEAEDVGVYYCLQGTHQPWTFGGGTKVEIK
**Q.** Which binding (带组氨酸标签的4-1BB抗原) does the source give for B3 here?
**A.** Its binding is “binds”.

B4: 抗人4-1BB人源化抗体3A11 (antibody, V domains shown)
VH: EVQLVESGGGLVKPGGSLRLSCAASGFIFNTNAMNWVRQAPGKGLEWIARIRSKINNYATYYADSVKDRFTISRDDSKNTLYLQMNSLKTEDTAVYYCNWDEAYWGQGTLVTVSS
VL: DIQMTQSPSSLSASVGDRVTITCKASDHINNWLAWYQQKPGKAPKLLIFGATSLETGVPSRFSGSASGNDYTLTISSLQPEDFATYYCQQYWSIPYTFGQGTKLEIK
**Q.** With B4 as the binder, how does the binding (带组氨酸标签的4-1BB抗原) read?
**A.** Its binding is “binds”.

B5: 抗人4-1BB人源化抗体1A2 (antibody, V domains shown)
VH: EAQLVQSGAEVKKPGATVKISCKVSGFNIKDTYMNWVQQAPGKGLEWIGRIAPANGNTKYAPQFQDRATITADTSTDTAYMELSSLRSEDTAVYYCARSYGSNFFDYWGQGTLVTVSS
VL: B1 VL with R24K, A25S, E27Q, S31N, S60T, N96V, D98N, Y100F
**Q.** For B5, which binding (带组氨酸标签的4-1BB抗原) is on record?
**A.** The binding was “binds”.
